Reference: publication PMC11212238
No constants are given. Whether binding was seen depends on the method and setting. Binding seen in cells or lysates may run through a third protein. Some results given as binding are weak or reduced against the parent protein; the word gives no strength.

By UniProt entry, the sequences of proteins in these tests, tags left out.
UniProt P62491: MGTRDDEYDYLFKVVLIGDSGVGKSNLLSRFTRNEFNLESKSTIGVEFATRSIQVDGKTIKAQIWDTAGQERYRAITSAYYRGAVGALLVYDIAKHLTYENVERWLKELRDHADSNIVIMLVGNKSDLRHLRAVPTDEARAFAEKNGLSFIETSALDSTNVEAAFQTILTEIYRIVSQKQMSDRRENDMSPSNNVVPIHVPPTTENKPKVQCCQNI
UniProt P50990: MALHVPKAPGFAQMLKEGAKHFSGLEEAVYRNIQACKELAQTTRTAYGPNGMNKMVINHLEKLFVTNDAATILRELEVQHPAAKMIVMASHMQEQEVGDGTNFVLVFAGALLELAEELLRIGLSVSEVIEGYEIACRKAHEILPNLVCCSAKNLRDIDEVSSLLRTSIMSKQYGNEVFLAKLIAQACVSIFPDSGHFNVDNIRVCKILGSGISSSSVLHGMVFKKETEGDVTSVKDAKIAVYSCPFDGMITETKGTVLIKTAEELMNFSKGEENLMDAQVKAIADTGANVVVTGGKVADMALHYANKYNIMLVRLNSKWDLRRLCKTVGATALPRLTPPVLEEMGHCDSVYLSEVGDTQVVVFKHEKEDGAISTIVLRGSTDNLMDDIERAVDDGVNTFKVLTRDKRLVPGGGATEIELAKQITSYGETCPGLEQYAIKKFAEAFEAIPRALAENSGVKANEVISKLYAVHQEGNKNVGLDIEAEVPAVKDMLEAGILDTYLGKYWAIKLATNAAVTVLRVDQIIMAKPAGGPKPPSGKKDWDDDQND

Molecular target: RAB11A (human (endogenous in SH-SY5Y)) (UniProt P62491)
Test: proximity ligation; Duolink In Situ Red kit on fixed, permeabilised SH-SY5Y cells infected with EV-A71 S41 (MOI 0.1), 24 h.p.i.; uninfected cells too for CCT8 with RAB11A; pairs of mouse and rabbit primary antibodies

binding: binds
Substance: CCT8 (from UniProt P50990 1-548)
